We go through one sequence from PMC5996148.

Experiment in all cases: protein microarray (ProtoArray v5.0), streptavidin-Alexa Fluor 647
Holding throughout (settings): 3'-biotin; 20 mM Tris (pH 7.5), 5 mM MgCl2, 100 mM KCl, 0.1% Tween-20, A/T-rich and random oligonucleotide blockers; temperature not stated; high values mean tight binding

Assay [1] has as its system CCT8 (human).
Assay [2] addresses T1, CD209 (UniProt Q9NNX6).
T1 sequence: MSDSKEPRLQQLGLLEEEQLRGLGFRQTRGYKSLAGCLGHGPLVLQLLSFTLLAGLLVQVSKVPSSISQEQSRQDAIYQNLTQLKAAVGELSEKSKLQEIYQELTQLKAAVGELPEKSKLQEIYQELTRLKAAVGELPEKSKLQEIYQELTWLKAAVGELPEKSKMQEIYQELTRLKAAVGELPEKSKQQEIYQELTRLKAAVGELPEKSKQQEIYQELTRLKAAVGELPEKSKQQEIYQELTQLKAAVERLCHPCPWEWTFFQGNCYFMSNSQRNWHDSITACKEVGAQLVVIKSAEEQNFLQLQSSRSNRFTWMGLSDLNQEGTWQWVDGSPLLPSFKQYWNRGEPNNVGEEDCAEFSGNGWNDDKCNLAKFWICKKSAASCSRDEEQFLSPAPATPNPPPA

Assay [3] relates to CD24 (human).
The test system of assay [4] is CD244 (human).
The target of assay [5] is T2, CD300LF (UniProt Q8TDQ1).
T2 sequence: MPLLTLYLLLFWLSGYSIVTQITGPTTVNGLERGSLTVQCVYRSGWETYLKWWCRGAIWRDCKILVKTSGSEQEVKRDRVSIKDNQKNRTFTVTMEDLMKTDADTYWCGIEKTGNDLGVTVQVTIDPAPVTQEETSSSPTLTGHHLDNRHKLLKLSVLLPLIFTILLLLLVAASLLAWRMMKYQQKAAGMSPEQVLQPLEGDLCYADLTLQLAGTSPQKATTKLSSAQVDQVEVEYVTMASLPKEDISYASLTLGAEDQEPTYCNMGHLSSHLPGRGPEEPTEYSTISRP

Assay [6] has as its system CD3D (human).
The test system of assay [7] is CD40 (human).
Assay [8] has as its system CD44 antigen (human).
The test system of assay [9] is CD74 (human).
Assay [10] has as its system CD9 (human).
The test system of assay [11] is CD99L2 (human).
Assay [12] concerns the target T3, CDADC1 (UniProt Q9BWV3).
T3 sequence: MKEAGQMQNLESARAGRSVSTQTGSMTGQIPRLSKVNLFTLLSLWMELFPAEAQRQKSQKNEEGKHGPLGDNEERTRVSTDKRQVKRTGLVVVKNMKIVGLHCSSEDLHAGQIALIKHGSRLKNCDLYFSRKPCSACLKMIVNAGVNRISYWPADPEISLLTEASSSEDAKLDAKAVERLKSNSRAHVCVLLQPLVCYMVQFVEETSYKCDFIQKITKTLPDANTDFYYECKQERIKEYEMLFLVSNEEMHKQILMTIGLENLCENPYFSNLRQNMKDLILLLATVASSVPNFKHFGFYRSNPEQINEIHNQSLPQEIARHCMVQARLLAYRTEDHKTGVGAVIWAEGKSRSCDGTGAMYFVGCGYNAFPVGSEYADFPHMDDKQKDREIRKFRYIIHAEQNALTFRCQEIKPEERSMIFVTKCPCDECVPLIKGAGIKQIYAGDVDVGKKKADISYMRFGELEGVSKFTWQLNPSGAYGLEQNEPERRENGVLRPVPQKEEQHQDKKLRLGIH

Assay [13] concerns CDC123 (human).
The subject of assay [14] is CDC23 (human).
The subject of assay [15] is CDC2L5 (human).
Assay [16] concerns CDC37 (human).
Assay [17] has as its system CDC42 (human).
Assay [18] has as its system CDCA4 (human).
For assay [19], the system named is CDCA7L (human).
Assay [20] has as its system CDIPT (human).

“And” between values parts separate entries of the source, which are not always exact repeats. Identical values can stand only once. This is one part of the list. For some assays here: The exact form of the protein is not confirmed.

In the case of “GGGAGGCTGAGGCAGG [G4-1 biotinylated (PQS2)]”, the binding signal in assay [1] is -0.35 z-score and -0.312 z-score; in assay [2], -0.354 z-score; in [3] it was -0.278 z-score; in [4] it was -0.335 z-score; in [5] it was -0.3 z-score; in assay [6], -0.316 z-score. Further, the binding signal in [7] was -0.322 z-score; in assay [8] it was -0.331 z-score; in assay [9], -0.352 z-score; in assay [10], -0.349 z-score; in assay [11] it was -0.312 z-score; in [12], -0.331 z-score. Besides, the binding signal was -0.359 z-score in [13]; -0.327 z-score in assay [14]; -0.3 z-score in [15]; -0.339 z-score in [16]; -0.334 z-score in assay [17]; -0.333 z-score and -0.35 z-score in [18]. The binding signal is -0.295 z-score in assay [19] and -0.297 z-score in [20].
